Test results from patent publication US20100008906A1.
No constants are given. Whether binding was seen depends on the method and setting. Some results given as binding are weak or reduced against the parent protein; the word gives no strength.

The chains behind the UniProt entries cited, without tags or fusion partners. Where a name states a change or a piece, a line headed by the entry shows the natural chain unless it says otherwise.
UniProt P13385: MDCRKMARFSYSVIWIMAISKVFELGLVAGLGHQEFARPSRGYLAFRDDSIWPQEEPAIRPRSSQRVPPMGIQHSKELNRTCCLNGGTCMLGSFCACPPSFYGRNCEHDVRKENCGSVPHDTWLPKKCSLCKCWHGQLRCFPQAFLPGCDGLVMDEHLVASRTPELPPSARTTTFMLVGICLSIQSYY

Molecular target: human Cripto (CRIPTO antigen on GEO human colon adenocarcinoma cells) (human) (UniProt P13385)
Assay: assay not described

B1: Full-length Version 2, huB3F6 L1/H2 (version 1 light chain and version 2 heavy chain) (antibody, human IgG1, V domains shown)
VH: EVQLVESGAEVKKPGASVKVSCKASGYTFTSYWIHWVRQAPGQGLEWMGENDPSNGRTNYNEKFKNRVTLTVDTSISTAYMELSRLRSDDTAVYYCARGPNYFYSMDYWGQGTMVTVSS
VL: DFVMTQSPLSLPVTPGEPASISCRSSQSIVHSNGNTYLEWYLQKPGQSPQLLIYKVSNRFSGVPDRFSGSGSGTDFTLKISRVEAEDVGVYYCFQGSHVPLTFGQGTKLEIKR
In the case of B1, the binding is reported as “binds”.
